Results published in PMC6197854.
No constants are given. Whether binding was seen depends on the method and setting. For some assays here: Binding seen in cells or lysates may run through a third protein. Some results given as binding are weak or reduced against the parent protein; the word gives no strength. For some assays here: Tags and fused reporters may be left off the sequences shown.

Protein sequences, listed by entry. Tags and fused reporters are not part of them. Residues count along the entry.
UniProt P12023, residues 18-701: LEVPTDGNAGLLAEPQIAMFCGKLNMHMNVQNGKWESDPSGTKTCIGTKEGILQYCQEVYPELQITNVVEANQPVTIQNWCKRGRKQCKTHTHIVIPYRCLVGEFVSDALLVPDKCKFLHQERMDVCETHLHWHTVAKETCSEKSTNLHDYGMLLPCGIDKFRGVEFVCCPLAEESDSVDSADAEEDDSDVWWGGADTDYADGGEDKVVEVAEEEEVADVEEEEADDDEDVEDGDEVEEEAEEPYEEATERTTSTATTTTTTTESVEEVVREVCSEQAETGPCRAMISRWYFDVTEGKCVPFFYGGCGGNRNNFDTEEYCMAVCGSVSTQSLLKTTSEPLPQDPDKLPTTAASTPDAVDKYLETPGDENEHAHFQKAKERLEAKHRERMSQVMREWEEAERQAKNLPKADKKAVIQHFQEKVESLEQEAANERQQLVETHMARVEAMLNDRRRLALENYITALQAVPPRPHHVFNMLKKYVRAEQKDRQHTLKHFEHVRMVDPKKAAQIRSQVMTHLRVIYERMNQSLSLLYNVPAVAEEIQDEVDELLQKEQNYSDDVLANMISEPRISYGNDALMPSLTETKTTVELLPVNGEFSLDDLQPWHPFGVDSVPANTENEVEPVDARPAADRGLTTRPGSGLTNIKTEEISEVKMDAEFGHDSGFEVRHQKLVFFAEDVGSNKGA
UniProt Q05909, residues 20-733: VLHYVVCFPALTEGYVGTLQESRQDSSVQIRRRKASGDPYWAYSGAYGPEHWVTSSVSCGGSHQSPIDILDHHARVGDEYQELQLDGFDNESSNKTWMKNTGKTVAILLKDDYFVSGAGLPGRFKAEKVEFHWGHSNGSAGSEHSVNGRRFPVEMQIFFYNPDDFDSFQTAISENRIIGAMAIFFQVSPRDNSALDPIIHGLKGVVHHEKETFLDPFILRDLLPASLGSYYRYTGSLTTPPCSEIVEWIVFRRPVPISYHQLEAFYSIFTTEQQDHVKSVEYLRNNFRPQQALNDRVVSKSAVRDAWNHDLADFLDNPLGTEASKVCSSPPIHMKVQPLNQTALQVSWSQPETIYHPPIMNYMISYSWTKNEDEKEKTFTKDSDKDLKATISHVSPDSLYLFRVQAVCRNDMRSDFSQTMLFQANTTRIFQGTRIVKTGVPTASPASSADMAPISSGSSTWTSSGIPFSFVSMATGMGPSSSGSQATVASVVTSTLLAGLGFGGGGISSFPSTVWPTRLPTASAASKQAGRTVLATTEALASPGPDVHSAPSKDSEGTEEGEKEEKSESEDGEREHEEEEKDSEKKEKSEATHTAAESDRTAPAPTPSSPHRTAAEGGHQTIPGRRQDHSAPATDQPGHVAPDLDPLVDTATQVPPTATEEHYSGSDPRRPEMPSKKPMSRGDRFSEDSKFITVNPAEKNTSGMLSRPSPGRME

Assays:
LRTM2-Fc (mouse) [1] = molecular target: T1, LRTM2-Fc (mouse) (UniProt Q8BGX3); assay: ACAPseq (affinity capture of polyribosomes followed by RNAseq); bait-Fc (~10 ug) on Protein-G magnetic beads; 40 ug neonatal mouse brain polyribosomes in 600 ul binding buffer (25 mM Tris pH 7.5, 150 mM KCl, 15 mM MgCl2, 1 mM CaCl2, 250 mM sucrose, 0.5% Igepal-630, 0.5% sodium deoxycholate, cyclohexamide, heparin), overnight at 4°C; captured mRNA sequenced; only the target purified
T1 sequence: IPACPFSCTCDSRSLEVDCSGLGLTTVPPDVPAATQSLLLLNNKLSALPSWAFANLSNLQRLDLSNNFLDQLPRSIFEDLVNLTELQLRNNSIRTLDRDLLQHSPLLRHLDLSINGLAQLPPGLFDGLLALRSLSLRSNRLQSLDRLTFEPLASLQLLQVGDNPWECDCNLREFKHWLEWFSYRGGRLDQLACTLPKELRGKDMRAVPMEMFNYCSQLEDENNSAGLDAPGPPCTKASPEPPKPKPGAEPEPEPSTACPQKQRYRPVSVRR

APP-Fc (mouse) = APP-Fc (mouse) (UniProt P12023); assay: as above
PTPRG-Fc (mouse) = PTPRG-Fc (mouse) (UniProt Q05909); assay: as above
LRTM2-Fc (mouse) [2] = molecular target: T1, LRTM2-Fc (mouse); assay: pull-down; LRTM2-Fc on protein-A sepharose beads; clarified lysate of transfected HEK293T cells in RIPA buffer with 0.1% BSA, 1 mM CaCl2, 1 mM MgCl2, overnight at 4°C; immunoblot for the OLLAS epitope; only the target purified

B1: TNR (nascent polypeptide on polyribosomes) (protein, UniProt Q8BYI9 32-1358)
chain: RLEVTTERAQRQTVEEEGGASSYNTSSKEQPMVFNHVYNINVPLESLCSSGLEASAEQDMSAEDDTLAEYIGQTSDHESQVTFTHKINLPKKACPCASSSQVLQELLSRIEMLEREVSLLRDQCNTNCCQESAATGQLDYVPHCSGHGNFSFESCGCICNEGWFGKNCSEPYCPLGCSSRGVCVDGQCICDSEYSGDDCSELRCPTDCSSRGLCVDGECVCEEPYTGEDCRELRCPGDCSGKGQCANGTCLCQEGYAGEDCSQRRCLNACSGRGHCQEGLCICEEGYQGPDCSAVAPPEDLRVAGISDRSIELEWDGPMAVTEYVISYQPTALGGLQLQQRVPGDWSGVTIMELEPGLTYNISVYAVISNILSLPITAKVATHLSTPQGLQFKTITETTVEVQWEPFSFSFDGWEISFIPKNNEGGVIAQLPSDVTSFNQTGLKPGEEYIVNVVALKEQARSPPTSASVSTVIDGPTQILVRDVSDTVAFVEWTPPRAKVDFILLKYGLVGGEGGKTTFRLQPPLSQYSVQALRPGSRYEVSISAVRGTNESEASSTQFTTEIDAPKNLRVGSRTATSLDLEWDNSEAEAQEYKVVYSTLAGEQYHEVLVPKGIGPTTKTTLTDLVPGTEYGVGISAVMNSKQSIPATMNARTELDSPRDLMVTASSETSISLIWTKASGPIDHYRITFTPSSGISSEVTVPRDRTSYTLTDLEPGAEYIISITAERGRQQSLESTVDAFTGFRPISHLHFSHVTSSSVNITWSDPSPPADRLILNYSPRDKEEDMLEVLLDATKRHAVLMGLQPATEYIVNLVAVHGTVTSEPIVGSITTGIDPPKNITISNVTKDSLTVSWSSPVAPFDYYRVSYRPTQVGRLDSSVVPNTVTEFAITRLYPATEYEISLNSVRGREESERICTLVHTAMDSPMDLIATNITPTEALLQWKAPMGEVENYVIVLTHFAIAGETILVDGVSEEFQLVDLLPSTHYTVTMYATSGPLMSGTIATNFSTLLDPPDNLTASEVTRQSALISWQPPRAAIENYVLTYKSTDGSRKELIVDAEDTWIRLEGLSENTDYTVLLQAAQEATRSSLTSTVFTTGGRVFSHPQDCAQHLMNGDTLSGVYTIFLNGELSHKLQVYCDMTTDGGGWIVFQRRQNGQTDFFRKWADYRVGFGNLEDEFWLGLDNIHRITAQGRYELRVDMRDGQEAVFAYYDKFAVEDSRSLYKIRIGSYNGTAGDSLSYHQGRPFSTEDRDNDVAVTNCAMSYKGAWWYKNCHRTNLNGKYGESRHSQGINWYHWKGHEFSIPFVEMKMRPYIHRLTAGRKRRALKF
**Q.** B1 was tested. Which binding (LRTM2-Fc (mouse) [1]) did it give?
**A.** binds

B2: Cyclin-dependent kinase 11b (nascent polypeptide on polyribosomes) (protein, UniProt P24788 1-784)
chain: MGDEKDSWKVKTLDEILQEKKRRKEQEEKAEIKRLKNSDDRDSKRDSLEEGELRDHRMEITIRNSPYRREDSMEDRGEEDDSLAIKPPQQMSRKEKAHHRKDEKRKEKRRHRSHSAEGGKHARVKEKEREHERRKRHREEQDKARREWERQKRREMAREHSRRERDRLEQLERKRERERKLREQQKEQREQKERERRAEERRKEREARREVSAHHRTMREEYSDKGKVGHWSRSPLRPPRERFEMGDNRKPVKEEKVEERDLLSDLQDISDSERKTSSAESSSAESGSGSEEEEEEEEEEEEEEGSTSEESEEEEEEEEEEEEEETGSNSEEASEQSAEEVSDEEMSEDEDRENENHILVVPESRFDRDSGDSEEGEEEVGEGTPQSSAPTEGDYVPDSPALSPIELKQELPKYLPALQGCRSVEEFQCLNRIEEGTYGVVYRAKDKKTDEIVALKRLKMEKEKEGFPITSLREINTILKAQHPNIVTVREIVVGSNMDKIYIVMNYVEHDLKSLMETMKQPFLPGEVKTLMIQLLSGVKHLHDNWILHRDLKTSNLLLSHAGILKVGDFGLAREYGSPLKAYTPVVVTLWYRAPELLLGAKEYSTAVDMWSVGCIFGELLTQKPLFPGKSDIDQINKIFKDLGTPSEKIWPGYNDLPAVKKMTFSEYPYNNLRKRFGALLSDQGFDLMNKFLTYYPGRRINAEDGLKHEYFRETPLPIDPSMFPTWPAKSEQQRVKRGTSPRPPEGGLGYSQLGDDDLKETGFHLTTTNQGASAAGPGFSLKF
**Q.** With B2 as the binder, how does the binding (APP-Fc (mouse)) read?
**A.** binds

B3: CNTN4 long isoform (nascent polypeptide on polyribosomes) (protein, UniProt Q69Z26-1 19-1000)
chain: DDYTLHGPVFVQEPSHVMFPLDSEEKKVKLSCEVKGNPKPHIRWKINGTDVDIGMDFRYSVVDGSLLINNPNKTQDAGTYQCIATNSFGTIVSREAKLQFAYLENFKTRTRSTVSVRRGQGMVLLCGPPPHSGELSYAWIFNEYPSYQDNRRFVSQETGNLYIAKVEKSDVGNYTCVVTNTVTNHKVLGPPTPLILRNDGVMGEYEPKIEVQFPETVPAEKGTTVKLECFALGNPVPTILWRRADGKPIARKARRHKSNGILEIPNFQQEDAGSYECVAENSRGKNVAKGQLTFYAQPNWVQIINDIHVAMEESVFWECKANGRPKPTYRWLKNGDPLLTRDRIQIEQGTLNITIVNLSDAGMYQCVAENKHGVIFSSAELSVIAESPDFSRTLLKRVTLVKVGGEVVIECKPKASPRPVYTWRKGREILRENERITISEDGNLRIINVTKSDAGSYTCIATNHFGTASSTGNVIVKDPTKVMVPPSSMDVTVGESIVLPCQVTHDHSLDIVFTWTFNGHLIDFDKDGDHFERVGGQDSAGDLMIRNIQLKHAGKYVCMVQTSVDKLSVAADLIVRGPPGPPEAVTIDEITDTTAQLSWRPGPDNHSPITMYVIQARTPFSVGWQAVNTVPDLVDGKTFTATVVGLNPWVEYEFRTVAANVIGIGEPSRPSEKRRTEEALPEVTPANVSGGGGSKSELVITWETVPEELQNGRGFGYVVAFRPHGKMIWMLTVLASADASRYVFRNESVRPFSPFEVKVGVFNNKGEGPFSPTTLVYSAEEEPTKPPASIFARSLSATDIEVFWASPIGKNRGRIQGYEVKYWRHDDKEENAKKIRTVGNQTSTKITNLKGSALYHLSVKAYNSAGTGPSSATVNVTTRKPPPSQPPGNIIWNSSDSKIILNWDQVKALDNESEVKGYKVLYRWNRQSSTSVIETNKTSVELSLPFDEDYIIEIKPFSDGGDGSSSEQIRIPKISNSYARGS
**Q.** For B3, which binding (PTPRG-Fc (mouse)) is on record?
**A.** binds

B4: CNTN4 short isoform (nascent polypeptide on polyribosomes) (protein, UniProt Q69Z26-2 19-705)
chain: DDYTLHGPVFVQEPSHVMFPLDSEEKKVKLSCEVKGNPKPHIRWKINGTDVDIGMDFRYSVVDGSLLINNPNKTQDAGTYQCIATNSFGTIVSREAKLQFAYLENFKTRTRSTVSVRRGQGMVLLCGPPPHSGELSYAWIFNEYPSYQDNRRFVSQETGNLYIAKVEKSDVGNYTCVVTNTVTNHKVLGPPTPLILRNDGVMGEYEPKIEVQFPETVPAEKGTTVKLECFALGNPVPTILWRRADGKPIARKARRHKSNGILEIPNFQQEDAGSYECVAENSRGKNVAKGQLTFYAQPNWVQIINDIHVAMEESVFWECKANGRPKPTYRWLKNGDPLLTRDRIQIEQGTLNITIVNLSDAGMYQCVAENKHGVIFSSAELSVIAESPDFSRTLLKRVTLVKVGGEVVIECKPKASPRPVYTWRKGREILRENERITISEDGNLRIINVTKSDAGSYTCIATNHFGTASSTGNVIVKDPTKVMVPPSSMDVTVGESIVLPCQVTHDHSLDIVFTWTFNGHLIDFDKDGDHFERVGGQDSAGDLMIRNIQLKHAGKYVCMVQTSVDKLSVAADLIVRGPPGPPEAVTIDEITDTTAQLSWRPGPDNHSPITMYVIQARTPFSVGWQAVNTVPDLVDGKTFTATVVGLNPWVEYEFRTVAANVIGIGEPSRPSEKRRTEEAQNTGDQRG
**Q.** With B4 as the binder, how does the binding (PTPRG-Fc (mouse)) read?
**A.** binds

B5: TNR-OLLAS (protein, UniProt Q8BYI9 32-1358)
chain: RLEVTTERAQRQTVEEEGGASSYNTSSKEQPMVFNHVYNINVPLESLCSSGLEASAEQDMSAEDDTLAEYIGQTSDHESQVTFTHKINLPKKACPCASSSQVLQELLSRIEMLEREVSLLRDQCNTNCCQESAATGQLDYVPHCSGHGNFSFESCGCICNEGWFGKNCSEPYCPLGCSSRGVCVDGQCICDSEYSGDDCSELRCPTDCSSRGLCVDGECVCEEPYTGEDCRELRCPGDCSGKGQCANGTCLCQEGYAGEDCSQRRCLNACSGRGHCQEGLCICEEGYQGPDCSAVAPPEDLRVAGISDRSIELEWDGPMAVTEYVISYQPTALGGLQLQQRVPGDWSGVTIMELEPGLTYNISVYAVISNILSLPITAKVATHLSTPQGLQFKTITETTVEVQWEPFSFSFDGWEISFIPKNNEGGVIAQLPSDVTSFNQTGLKPGEEYIVNVVALKEQARSPPTSASVSTVIDGPTQILVRDVSDTVAFVEWTPPRAKVDFILLKYGLVGGEGGKTTFRLQPPLSQYSVQALRPGSRYEVSISAVRGTNESEASSTQFTTEIDAPKNLRVGSRTATSLDLEWDNSEAEAQEYKVVYSTLAGEQYHEVLVPKGIGPTTKTTLTDLVPGTEYGVGISAVMNSKQSIPATMNARTELDSPRDLMVTASSETSISLIWTKASGPIDHYRITFTPSSGISSEVTVPRDRTSYTLTDLEPGAEYIISITAERGRQQSLESTVDAFTGFRPISHLHFSHVTSSSVNITWSDPSPPADRLILNYSPRDKEEDMLEVLLDATKRHAVLMGLQPATEYIVNLVAVHGTVTSEPIVGSITTGIDPPKNITISNVTKDSLTVSWSSPVAPFDYYRVSYRPTQVGRLDSSVVPNTVTEFAITRLYPATEYEISLNSVRGREESERICTLVHTAMDSPMDLIATNITPTEALLQWKAPMGEVENYVIVLTHFAIAGETILVDGVSEEFQLVDLLPSTHYTVTMYATSGPLMSGTIATNFSTLLDPPDNLTASEVTRQSALISWQPPRAAIENYVLTYKSTDGSRKELIVDAEDTWIRLEGLSENTDYTVLLQAAQEATRSSLTSTVFTTGGRVFSHPQDCAQHLMNGDTLSGVYTIFLNGELSHKLQVYCDMTTDGGGWIVFQRRQNGQTDFFRKWADYRVGFGNLEDEFWLGLDNIHRITAQGRYELRVDMRDGQEAVFAYYDKFAVEDSRSLYKIRIGSYNGTAGDSLSYHQGRPFSTEDRDNDVAVTNCAMSYKGAWWYKNCHRTNLNGKYGESRHSQGINWYHWKGHEFSIPFVEMKMRPYIHRLTAGRKRRALKF
**Q.** With B5 as the binder, how does the binding (LRTM2-Fc (mouse) [2]) read?
**A.** binds
